The values that follow come from article PMC9037358 (RSC Advances, 2021).

Holding throughout (assay type): cell-based
One series has as its system MDA-MB-231. As to the kind of experiment: MTT cytotoxicity assay. The conditions noted are these: Homo sapiens, MDA-MB-231, 48 h, read-out: Cytotoxicity IC50 μM ± S.D. MDA-MB-231. For orientation: Tetrazolium assays rely on reduction of a dye to a coloured formazan, in cell work by metabolically active cells.
Another series relates to MCF-7. Nature of the series: MTT cytotoxicity assay. The conditions noted are these: Homo sapiens, MCF7, 48 h, read-out: Cytotoxicity IC50 μM ± S.D. MCF-7.
The nature of series [1]: MTT cytotoxicity assay, normal breast cell line. The conditions noted are these: human, MCF 10A normal breast cells.

Each structure is given as a SMILES string.

For orientation: IC50 means the point on the concentration scale where inhibition reaches its midpoint. `CN[C@@H]1C[C@H]2O[C@@](C)([C@@H]1OC)n1c3ccccc3c3c4c(c5c6ccccc6n2c5c31)C(=O)NC4` [Staurosporine, reference compound]: the values for the IC50 in the series with MDA-MB-231 and in the series on MCF-7 were 7.67 ± 0.3 µM and 5.89 ± 0.2 µM, respectively. This molecule displayed an IC50 at 48 h in series [1] of 13 ± 0.5 µM.
